Laboratory results published in patent US9815841B2, “Compounds” (GLAXOSMITHKLINE INTELLECTUAL PROPERTY DEVELOPMENT LIMITED, priority 2014, dated 2017).
Some results were stated once for a whole list of compounds, not compound by compound.

Protein sequences, listed by entry. Tags and fused reporters are not part of them. Lines headed by an entry give the natural chain unless they say otherwise; changes in a name come on top.
UniProt Q5S007: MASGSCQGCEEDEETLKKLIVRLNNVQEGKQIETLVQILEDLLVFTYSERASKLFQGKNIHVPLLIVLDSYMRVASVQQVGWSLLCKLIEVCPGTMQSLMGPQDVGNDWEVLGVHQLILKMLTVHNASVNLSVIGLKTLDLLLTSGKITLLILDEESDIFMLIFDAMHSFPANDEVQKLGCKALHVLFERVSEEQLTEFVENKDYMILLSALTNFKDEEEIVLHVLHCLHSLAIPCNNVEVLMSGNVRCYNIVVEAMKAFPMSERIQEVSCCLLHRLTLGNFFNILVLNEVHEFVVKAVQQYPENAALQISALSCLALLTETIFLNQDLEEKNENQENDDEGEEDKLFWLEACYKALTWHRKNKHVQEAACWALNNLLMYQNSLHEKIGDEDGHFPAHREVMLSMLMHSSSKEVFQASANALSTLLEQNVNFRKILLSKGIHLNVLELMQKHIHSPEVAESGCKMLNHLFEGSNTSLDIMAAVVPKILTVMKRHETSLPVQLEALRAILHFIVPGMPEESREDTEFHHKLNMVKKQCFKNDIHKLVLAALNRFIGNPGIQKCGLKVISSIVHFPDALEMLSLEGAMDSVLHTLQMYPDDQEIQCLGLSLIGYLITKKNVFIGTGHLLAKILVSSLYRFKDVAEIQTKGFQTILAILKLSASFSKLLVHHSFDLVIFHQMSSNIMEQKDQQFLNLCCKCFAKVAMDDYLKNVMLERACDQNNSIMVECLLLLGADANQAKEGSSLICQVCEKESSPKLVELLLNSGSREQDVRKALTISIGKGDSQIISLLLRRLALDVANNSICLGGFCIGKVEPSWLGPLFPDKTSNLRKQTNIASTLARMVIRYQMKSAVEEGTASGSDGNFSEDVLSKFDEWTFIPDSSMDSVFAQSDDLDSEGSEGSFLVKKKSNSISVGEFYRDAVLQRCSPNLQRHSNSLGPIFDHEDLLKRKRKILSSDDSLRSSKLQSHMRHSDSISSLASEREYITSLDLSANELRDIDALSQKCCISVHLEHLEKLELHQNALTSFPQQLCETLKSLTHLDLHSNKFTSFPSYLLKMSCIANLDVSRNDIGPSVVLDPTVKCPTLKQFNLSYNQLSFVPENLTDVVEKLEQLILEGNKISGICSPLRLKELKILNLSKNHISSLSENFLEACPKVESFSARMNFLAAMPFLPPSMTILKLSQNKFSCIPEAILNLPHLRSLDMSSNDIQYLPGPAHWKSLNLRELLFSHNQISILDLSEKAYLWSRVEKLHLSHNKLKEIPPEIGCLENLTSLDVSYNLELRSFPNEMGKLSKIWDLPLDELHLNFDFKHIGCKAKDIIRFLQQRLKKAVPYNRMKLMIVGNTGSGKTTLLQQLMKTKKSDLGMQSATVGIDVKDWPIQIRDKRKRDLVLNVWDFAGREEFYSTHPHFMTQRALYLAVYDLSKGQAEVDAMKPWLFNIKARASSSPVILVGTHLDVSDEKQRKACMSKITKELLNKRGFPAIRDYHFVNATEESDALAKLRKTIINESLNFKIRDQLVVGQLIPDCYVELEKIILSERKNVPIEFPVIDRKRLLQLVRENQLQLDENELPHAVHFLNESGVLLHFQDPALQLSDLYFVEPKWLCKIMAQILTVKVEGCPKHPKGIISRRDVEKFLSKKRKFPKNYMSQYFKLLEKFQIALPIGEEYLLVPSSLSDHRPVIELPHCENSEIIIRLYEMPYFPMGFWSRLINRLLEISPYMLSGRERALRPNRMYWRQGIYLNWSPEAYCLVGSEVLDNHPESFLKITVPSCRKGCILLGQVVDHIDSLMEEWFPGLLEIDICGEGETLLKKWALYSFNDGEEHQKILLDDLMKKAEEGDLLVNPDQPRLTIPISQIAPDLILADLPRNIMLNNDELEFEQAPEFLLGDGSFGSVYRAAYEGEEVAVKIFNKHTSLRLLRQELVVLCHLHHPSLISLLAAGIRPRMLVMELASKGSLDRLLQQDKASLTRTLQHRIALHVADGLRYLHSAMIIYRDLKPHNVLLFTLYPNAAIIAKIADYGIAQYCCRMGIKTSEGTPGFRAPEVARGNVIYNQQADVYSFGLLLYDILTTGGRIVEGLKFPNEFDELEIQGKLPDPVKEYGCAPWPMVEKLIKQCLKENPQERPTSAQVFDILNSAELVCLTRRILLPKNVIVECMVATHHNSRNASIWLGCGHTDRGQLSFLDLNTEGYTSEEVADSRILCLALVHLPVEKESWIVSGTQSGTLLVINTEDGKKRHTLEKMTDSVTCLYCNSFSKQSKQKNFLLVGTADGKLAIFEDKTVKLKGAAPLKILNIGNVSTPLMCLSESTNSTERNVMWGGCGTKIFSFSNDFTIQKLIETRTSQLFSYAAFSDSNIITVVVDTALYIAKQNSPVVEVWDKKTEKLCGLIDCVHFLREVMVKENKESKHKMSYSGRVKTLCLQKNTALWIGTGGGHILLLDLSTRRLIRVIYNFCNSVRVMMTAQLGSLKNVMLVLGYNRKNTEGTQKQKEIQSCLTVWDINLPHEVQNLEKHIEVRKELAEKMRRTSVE

These compounds were tested against T1, recombinant full length LRRK2 over-expressed in SH-SY5Y cells (Homo sapiens, UniProt Q5S007) (assay: Recombinant cellular LRRK2 AlphaScreen assay (LRRK2 Ser935 phosphorylation)). Details: SH-SY5Y cells with BacMam LRRK2, 60 minutes compound incubation.
T1 construct: A BacMam virus expressing full length recombinant LRRK2 was purchased from Invitrogen; host or cells: SH-SY5Y human neuroblastoma cells transduced with BacMam LRRK2 virus
Type: cell-based
Description: Recombinant Cellular LRRK2 AlphaScreen Assay
A BacMam virus expressing full length recombinant LRRK2 was purchased from Invitrogen and amplified by inoculation of SF-9 cells at MOI 0.3 for 4-5 days in Sf-900 III SFM medium supplemented with 3% fetal bovine serum. Infected cell cultures were then centrifuged at 2000 g for 20 minutes, viral supernatant titer determined by anti-gp64 plaque assay and stored at 4° C.
Affinity-purified anti-phospho LRRK2 Ser935 sheep polyclonal antibody (Dzamko et al., 2010, Biochem. J. 430: 405-413) was biotinylated by standard methods (PerkinElmer). Anti-LRRK2 rabbit polyclonal antibody was purchased from Novus Biologicals. AlphaScreen Protein A IgG Kit (including acceptor and donor beads) was purchased from Perkin Elmer.
SH-SY5Y cells were grown in DMEM/F12 medium with 10% dialysed fetal bovine serum and harvested by treatment with 0.5% trypsin-EDTA for 5 minutes at […] followed by centrifugation at 1000 rpm for 4 minutes. The cell pellet was resuspended in Opti-MEM reduced serum media (Invitrogen) at 200,000 cells/ml and mixed with the BacMam LRRK2 virus at MOI=50. 50 μl cell solutions were then dispensed to each well of a 384-well plate and incubated at 37° C., 5% CO2 for 24 hours.
Serial dilutions of test compounds were prepared in Opti-MEM reduced serum media (Invitrogen) and 5.6 ul transferred from compound plate to cell assay plate to achieve a top final assay concentration of 10 uM. DMSO was used in certain wells as controls. Cells were incubated at 37° C., 5% CO2 for 60 minutes. The medium was then removed and cells lysed by addition of 20 ul cell lysis buffer (Cell Signaling Technology) and incubation at 4° C. for 20 minutes. 10 ul of antibody/acceptor bead mix [(1/1000 biotinylated-pS935 LRRK2 antibody, 1/1000 total-LRRK2 antibody, 1/100 Acceptor beads in AlphaScreen detection buffer (25 mM Hepes (pH 7.4), 0.5% Triton X-100, 1 mg/ml Dextran 500 and 0.1% BSA)] was then added to each well and plates incubated for 2 hours at ambient temperature in the dark. 10 μl of donor beads solution (1/33.3 donor beads in AlphaScreen detection buffer) was then added to each well. Following incubation for a further 2 hours at ambient temperature in the dark, plates were read on an EnVision™ plate reader at emission 520-620 nm with excitation 680 nm. Dose response curve data was based on sigmoidal dose-response model.

Recombinant cellcular LRRK2 alphaScreen assay (pIC50), ≥ 5.0:
CCOc1nc(Nc2ccc(C(=O)N3CC4CC4(CO)C3)cc2OC)nc2[nH]ccc12 (single isomer, unassigned) [Example E47, (4-((4-ethoxy-7H-pyrrolo-[2,3-d]-pyrimidin-2-yl)amino)-3-methoxyphenyl)(1-(hydroxymethyl)-3-azabicyclo-[3.1.0]-hexan-3-yl)methanone]
CCOc1nc(Nc2ccc(C(=O)N3CCC4(COC4)C3)cc2OC)nc2[nH]ccc12 [Example E12, (4-((4-ethoxy-7H-pyrrolo-[2,3-d]pyrimidin-2-yl)amino)-3-methoxyphenyl)(2-oxa-6-azaspiro-[3.4]-octan-6-yl)-methanone]
CCOc1nc(Nc2ccc(C(=O)N3CCOC3)cc2OC)nc2[nH]ccc12 [Example E17, (4-((4-ethoxy-7H-pyrrolo-[2,3-d]-pyrimidin-2-yl)amino)-3-methoxyphenyl)(oxazolidin-3-yl) methanone]
CCOc1nc(Nc2ccc(C(=O)N3CCOCC3)c(OC)c2)nc2[nH]ccc12 [Example E18, (4-((4-ethoxy-7H-pyrrolo-[2,3-d]-pyrimidin-2-yl)amino)-2-methoxyphenyl)(morpholino)methanone]
CCOc1nc(Nc2ccc(C(=O)N3CCOCC3)cc2N(C)C)nc2[nH]ccc12 [Example E19, (3-(dimethylamino)-4-((4-ethoxy-7H-pyrrolo-[2,3-d]-pyrimidin-2-yl)amino)phenyl)-(morpholino)methanone]
CCOc1nc(Nc2ccc(C(=O)N3CCOCC3)c(C)c2OC)nc2[nH]ccc12 [Example E28, (4-((4-ethoxy-7H-pyrrolo-[2,3-d]pyrimidin-2-yl)amino)-3-methoxy-2-methylphenyl)(morpholino)methanone]
COc1cc(C(=O)N2CCN(C)CC2)ccc1Nc1nc(OCC2CC2)c2cc[nH]c2n1 [Example E33, (4-((4-(cyclopropylmethoxy)-7H-pyrrolo-[2,3-d]pyrimidin-2-yl)amino)-3-methoxyphenyl)(4-methylpiperazin-1-yl) methanone]
COc1cc(C(=O)N2CCOCC2)ccc1Nc1nc(OCC2CC2)c2cc[nH]c2n1 [Example E34, (4-((4-(cyclopropylmethoxy)-7H-pyrrolo-[2,3-d]pyrimidin-2-yl)amino)-3-methoxyphenyl)(morpholino)methanone]
CCOc1nc(Nc2ccc(C(=O)N3CCC[C@H]3COC)cc2OC)nc2[nH]ccc12 [Example E43, (S)-(4-((4-ethoxy-7H-pyrrolo-[2,3-d]-pyrimidin-2-yl)amino)-3-methoxyphenyl)(2-(methoxymethyl)pyrrolidin-1-yl)methanone]
CCOc1nc(Nc2ccc(C(=O)N3CCC4(CC3)CNC4)cc2OC)nc2[nH]ccc12 [Example E51, (4-((4-ethoxy-7H-pyrrolo-[2,3-d]-pyrimidin-2-yl)amino)-3-methoxyphenyl)(2,7-diazaspiro-[3.5]nonan-7-yl)methanone]
CCOc1nc(Nc2ccc(C(=O)N3CCOCC3)cc2OC)nc2[nH]ncc12 [Example E56, (4-((4-ethoxy-1H-pyrazolo-[3,4-d]-pyrimidin-6-yl)amino)-3-methoxyphenyl)(morpholino)methanone]
CCOc1nc(Nc2ccc(C(=O)N3CCN(C)CC3)cc2OC(C)C)nc2[nH]cc(C#N)c12 [Example E61, 4-ethoxy-2-((2-isopropoxy-4-(4-methylpiperazine-1-carbonyl)-phenyl)-amino)-7H-pyrrolo-[2,3-d]pyrimidine-5-carbonitrile]
CCOc1nc(Nc2ccc(C(=O)N3CCC(F)CC3)cc2OC)nc2[nH]cc(C#N)c12 [Example E63, 4-ethoxy-2-((4-(4-fluoropiperidine-1-carbonyl)-2-methoxyphenyl)-amino)-7H-pyrrolo-[2,3-d]pyrimidine-5-carbonitrile]
